Laboratory results: publication PMC7461561

Protein sequences, listed by entry. Tags and fused reporters are not part of them.
UniProt O60260: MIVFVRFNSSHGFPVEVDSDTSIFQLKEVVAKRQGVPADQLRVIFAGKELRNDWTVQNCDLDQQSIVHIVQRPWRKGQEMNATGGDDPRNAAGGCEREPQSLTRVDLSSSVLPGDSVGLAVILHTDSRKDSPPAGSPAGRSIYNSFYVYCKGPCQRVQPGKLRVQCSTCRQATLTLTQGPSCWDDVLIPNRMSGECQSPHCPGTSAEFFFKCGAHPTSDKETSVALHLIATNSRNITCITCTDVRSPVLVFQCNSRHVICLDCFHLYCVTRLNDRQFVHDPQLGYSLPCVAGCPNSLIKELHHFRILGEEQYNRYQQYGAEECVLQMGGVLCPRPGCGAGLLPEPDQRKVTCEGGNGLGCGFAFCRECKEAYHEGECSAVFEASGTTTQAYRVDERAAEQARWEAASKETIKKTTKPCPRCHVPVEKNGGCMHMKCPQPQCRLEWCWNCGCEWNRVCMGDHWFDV

Molecular target: Parkin (human (endogenous in platelets)) (UniProt O60260)
Experiment: affinity purification with mass spectrometry; IP with Parkin-specific antibodies from human DM platelet lysate; silver-stained gel, 10 bands enriched in DM against HC cut out; in-gel trypsin digestion, LC-MS/MS, Mascot search

binding | Binder
binds | Protein disulfide-isomerase A5 (protein, UniProt Q14554 22-519) SSAKVSSLIERISDPKDLKKLLRTRNNVLVLYSKSEVAAENHLRLLSTVAQAVKGQGTICWVDCGDAESRKLCKKMKVDLSPKDKKVELFHYQDGAFHTEYNRAVTFKSIVAFLKDPKGPPLWEEDPGAKDVVHLDSEKDFRRLLKKEEKPLLIMFYAPWCSMCKRMMPHFQKAATQLRGHAVLAGMNVYSSEFENIKEEYSVRGFPTICYFEKGRFLFQYDNYGSTAEDIVEWLKNPQPPQPQVPETPWADEGGSVYHLTDEDFDQFVKEHSSVLVMFHAPWCGHCKKMKPEFEKAAEALHGEADSSGVLAAVDATVNKALAERFHISEFPTLKYFKNGEKYAVPVLRTKKKFLEWMQNPEAPPPPEPTWEEQQTSVLHLVGDNFRETLKKKKHTLVMFYAPWCPHCKKVIPHFTATADAFKDDRKIACAAVDCVKDKNQDLCQQEAVKGYPTFHYYHYGKFAEKYDSDRTELGFTNYIRALREGDHERLGKKKEEL
binds | Platelet glycoprotein IX (protein, UniProt P14770 17-177) TKDCPSPCTCRALETMGLWVDCRGHGLTALPALPARTRHLLLANNSLQSVPPGAFDHLPQLQTLDVTQNPWHCDCSLTYLRLWLEDRTPEALLQVRCASPSLAAHGPLGRLTGYQLGSCGWQLQASWVRPGVLWDVALVAVAALGLALLAGLLCATTEALD
binds | Protein disulfide-isomerase A6 (protein, UniProt Q15084 20-440) LYSSSDDVIELTPSNFNREVIQSDSLWLVEFYAPWCGHCQRLTPEWKKAATALKDVVKVGAVDADKHHSLGGQYGVQGFPTIKIFGSNKNRPEDYQGGRTGEAIVDAALSALRQLVKDRLGGRSGGYSSGKQGRSDSSSKKDVIELTDDSFDKNVLDSEDVWMVEFYAPWCGHCKNLEPEWAAAASEVKEQTKGKVKLAAVDATVNQVLASRYGIRGFPTIKIFQKGESPVDYDGGRTRSDIVSRALDLFSDNAPPPELLEIINEDIAKRTCEEHQLCVVAVLPHILDTGAAGRNSYLEVLLKLADKYKKKMWGWLWTEAGAQSELETALGIGGFGYPAMAAINARKMKFALLKGSFSEQGINEFLRELSFGRGSTAPVGGGAFPTIVEREPWDGRDGELPVEDDIDLSDVELDDLGKDEL
binds | Multimerin-1 (protein, UniProt Q13201 20-1228) LNNSKHSWTIPEDGNSQKTMPSASVPPNKIQSLQILPTTRVMSAEIATTPEARTSEDSLLKSTLPPSETSAPAEGVRNQTLTSTEKAEGVVKLQNLTLPTNASIKFNPGAESVVLSNSTLKFLQSFARKSNEQATSLNTVGGTGGIGGVGGTGGVGNRAPRETYLSRGDSSSSQRTDYQKSNFETTRGKNWCAYVHTRLSPTVILDNQVTYVPGGKGPCGWTGGSCPQRSQKISNPVYRMQHKIVTSLDWRCCPGYSGPKCQLRAQEQQSLIHTNQAESHTAVGRGVAEQQQQQGCGDPEVMQKMTDQVNYQAMKLTLLQKKIDNISLTVNDVRNTYSSLEGKVSEDKSREFQSLLKGLKSKSINVLIRDIVREQFKIFQNDMQETVAQLFKTVSSLSEDLESTRQIIQKVNESVVSIAAQQKFVLVQENRPTLTDIVELRNHIVNVRQEMTLTCEKPIKELEVKQTHLEGALEQEHSRSILYYESLNKTLSKLKEVHEQLLSTEQVSDQKNAPAAESVSNNVTEYMSTLHENIKKQSLMMLQMFEDLHIQESKINNLTVSLEMEKESLRGECEDMLSKCRNDFKFQLKDTEENLHVLNQTLAEVLFPMDNKMDKMSEQLNDLTYDMEILQPLLEQGASLRQTMTYEQPKEAIVIRKKIENLTSAVNSLNFIIKELTKRHNLLRNEVQGRDDALERRINEYALEMEDGLNKTMTIINNAIDFIQDNYALKETLSTIKDNSEIHHKCTSDMETILTFIPQFHRLNDSIQTLVNDNQRYNFVLQVAKTLAGIPRDEKLNQSNFQKMYQMFNETTSQVRKYQQNMSHLEEKLLLTTKISKNFETRLQDIESKVTQTLIPYYISVKKGSVVTNERDQALQLQVLNSRFKALEAKSIHLSINFFSLNKTLHEVLTMCHNASTSVSELNATIPKWIKHSLPDIQLLQKGLTEFVEPIIQIKTQAALSNLTCCIDRSLPGSLANVVKSQKQVKSLPKKINALKKPTVNLTTVLIGRTQRNTDNIIYPEEYSSCSRHPCQNGGTCINGRTSFTCACRHPFTGDNCTIKLVEENALAPDFSKGSYRYAPMVAFFASHTYGMTIPGPILFNNLDVNYGASYTPRTGKFRIPYLGVYVFKYTIESFSAHISGFLVVDGIDKLAFESENINSEIHCDRVLTGDALLELNYGQEVWLRLAKGTIPAKFPPVTTFSGYLLYRT
binds | Peroxiredoxin-1 (protein, UniProt Q06830 1-199) MSSGNAKIGHPAPNFKATAVMPDGQFKDISLSDYKGKYVVFFFYPLDFTFVCPTEIIAFSDRAEEFKKLNCQVIGASVDSHFCHLAWVNTPKKQGGLGPMNIPLVSDPKRTIAQDYGVLKADEGISFRGLFIIDDKGILRQITVNDLPVGRSVDETLRLVQAFQFTDKHGEVCPAGWKPGSDTIKPDVQKSKEYFSKQK
binds | Peroxisomal multifunctional enzyme type 2 (protein, UniProt P51659 1-736) MGSPLRFDGRVVLVTGAGAGLGRAYALAFAERGALVVVNDLGGDFKGVGKGSLAADKVVEEIRRRGGKAVANYDSVEEGEKVVKTALDAFGRIDVVVNNAGILRDRSFARISDEDWDIIHRVHLRGSFQVTRAAWEHMKKQKYGRIIMTSSASGIYGNFGQANYSAAKLGLLGLANSLAIEGRKSNIHCNTIAPNAGSRMTQTVMPEDLVEALKPEYVAPLVLWLCHESCEENGGLFEVGAGWIGKLRWERTLGAIVRQKNHPMTPEAVKANWKKICDFENASKPQSIQESTGSIIEVLSKIDSEGGVSANHTSRATSTATSGFAGAIGQKLPPFSYAYTELEAIMYALGVGASIKDPKDLKFIYEGSSDFSCLPTFGVIIGQKSMMGGGLAEIPGLSINFAKVLHGEQYLELYKPLPRAGKLKCEAVVADVLDKGSGVVIIMDVYSYSEKELICHNQFSLFLVGSGGFGGKRTSDKVKVAVAIPNRPPDAVLTDTTSLNQAALYRLSGDWNPLHIDPNFASLAGFDKPILHGLCTFGFSARRVLQQFADNDVSRFKAIKARFAKPVYPGQTLQTEMWKEGNRIHFQTKVQETGDIVISNAYVDLAPTSGTSAKTPSEGGKLQSTFVFEEIGRRLKDIGPEVVKKVNAVFEWHITKGGNIGAKWTIDLKSGSGKVYQGPAKGAADTTIILSDEDFMEVVLGKLDPQKAFFSGRLKARGNIMLSQKLQMILKDYAKL
binds | Platelet factor 4 (protein, UniProt P02776 32-101) EAEEDGDLQCLCVKTTSQVRPRHITSLEVIKAGPHCPTAQLIATLKNGRKICLDLQAPLYKKIIKKLLES
binds | ATP synthase subunit e, mitochondrial (protein, UniProt P56385 1-69) MVPPVQVSPLIKLGRYSALFLGVAYGATRYNYLKPRAEEERRIAAEEKKKQDELKRIARELAEDDSILK
binds | Single-Stranded DNA-binding protein, mitochondrial (protein, UniProt Q04837 17-148) ESETTTSLVLERSLNRVHLLGRVGQDPVLRQVEGKNPVTIFSLATNEMWRSGDSEVYQLGDVSQKTTWHRISVFRPGLRDVAYQYVKKGSRIYLEGKIDYGEYMDKNNVRRQATTIIADNIIFLSDQTKEKE
binds | 14-3-3 protein gamma (protein, UniProt P61981 1-247) MVDREQLVQKARLAEQAERYDDMAAAMKNVTELNEPLSNEERNLLSVAYKNVVGARRSSWRVISSIEQKTSADGNEKKIEMVRAYREKIEKELEAVCQDVLSLLDNYLIKNCSETQYESKVFYLKMKGDYYRYLAEVATGEKRATVVESSEKAYSEAHEISKEHMQPTHPIRLGLALNYSVFYYEIQNAPEQACHLAKTAFDDAIAELDTLNEDSYKDSTLIMQLLRDNLTLWTSDQQDDDGGEGNN
binds | Protein S100-A9 (protein, UniProt P06702 1-114) MTCKMSQLERNIETIINTFHQYSVKLGHPDTLNQGEFKELVRKDLQNFLKKENKNEKVIEHIMEDLDTNADKQLSFEEFIMLMARLTWASHEKMHEGDEGPGHHHKPGLGEGTP
binds | 14-3-3 protein theta (protein, UniProt P27348 1-245) MEKTELIQKAKLAEQAERYDDMATCMKAVTEQGAELSNEERNLLSVAYKNVVGGRRSAWRVISSIEQKTDTSDKKLQLIKDYREKVESELRSICTTVLELLDKYLIANATNPESKVFYLKMKGDYFRYLAEVACGDDRKQTIDNSQGAYQEAFDISKKEMQPTHPIRLGLALNFSVFYYEILNNPELACTLAKTAFDEAIAELDTLNEDSYKDSTLIMQLLRDNLTLWTSDSAGEECDAAEGAEN
binds | E3 ubiquitin-protein ligase HECTD3 (protein, UniProt Q5T447 1-861) MAGPGPGAVLESPRQLLGRVRFLAEAARSLRAGRPLPAALAFVPREVLYKLYKDPAGPSRVLLPVWEAEGLGLRVGAAGPAPGTGSGPLRAARDSIELRRGACVRTTGEELCNGHGLWVKLTKEQLAEHLGDCGLQEGWLLVCRPAEGGARLVPIDTPNHLQRQQQLFGVDYRPVLRWEQVVDLTYSHRLGSRPQPAEAYAEAVQRLLYVPPTWTYECDEDLIHFLYDHLGKEDENLGSVKQYVESIDVSSYTEEFNVSCLTDSNADTYWESDGSQCQHWVRLTMKKGTIVKKLLLTVDTTDDNFMPKRVVVYGGEGDNLKKLSDVSIDETLIGDVCVLEDMTVHLPIIEIRIVECRDDGIDVRLRGVKIKSSRQRELGLNADLFQPTSLVRYPRLEGTDPEVLYRRAVLLQRFIKILDSVLHHLVPAWDHTLGTFSEIKQVKQFLLLSRQRPGLVAQCLRDSESSKPSFMPRLYINRRLAMEHRACPSRDPACKNAVFTQVYEGLKPSDKYEKPLDYRWPMRYDQWWECKFIAEGIIDQGGGFRDSLADMSEELCPSSADTPVPLPFFVRTANQGNGTGEARDMYVPNPSCRDFAKYEWIGQLMGAALRGKEFLVLALPGFVWKQLSGEEVSWSKDFPAVDSVLVKLLEVMEGMDKETFEFKFGKELTFTTVLSDQQVVELIPGGAGIVVGYGDRSRFIQLVQKARLEESKEQVAAMQAGLLKVVPQAVLDLLTWQELEKKVCGDPEVTVDALRKLTRFEDFEPSDSRVQYFWEALNNFTNEDRSRFLRFVTGRSRLPARIYIYPDKLGYETTDALPESSTCSSTLFLPHYASAKVCEEKLRYAAYNCVAIDTDMSPWEE
binds | Regulator of G-protein signaling 18 (protein, UniProt Q9NS28 1-235) METTLLFFSQINMCESKEKTFFKLIHGSGKEETSKEAKIRAKEKRNRLSLLVQKPEFHEDTRSSRSGHLAKETRVSPEEAVKWGESFDKLLSHRDGLEAFTRFLKTEFSEENIEFWIACEDFKKSKGPQQIHLKAKAIYEKFIQTDAPKEVNLDFHTKEVITNSITQPTLHSFDAAQSRVYQLMEQDSYTRFLKSDIYLDLMEGRPQRPTNLRRRSRSFTCNEFQDVQSDVAIWL
binds | Cytosolic Fe-S cluster assembly factor NUBP2 (protein, UniProt Q9Y5Y2 1-271) MEAAAEPGNLAGVRHIILVLSGKGGVGKSTISTELALALRHAGKKVGILDVDLCGPSIPRMLGAQGRAVHQCDRGWAPVFLDREQSISLMSVGFLLEKPDEAVVWRGPKKNALIKQFVSDVAWGELDYLVVDTPPGTSDEHMATIEALRPYQPLGALVVTTPQAVSVGDVRRELTFCRKTGLRVMGIVENMSGFTCPHCTECTSVFSRGGGEELAQLAGVPFLGSVPLDPALMRTLEEGHDFIQEFPGSPAFAALTSIAQKILDATPACLP

These are yes or no findings as the source states them, for the method shown. In cells and extracts the contact can be indirect. These calls come from enrichment with a bait or labelling near it, and not all partners need be listed.
